For four molecules, binding results are on record in article PMC6377711.

Amino acid sequences for entries named in this document (tags omitted).
UniProt Q676U5: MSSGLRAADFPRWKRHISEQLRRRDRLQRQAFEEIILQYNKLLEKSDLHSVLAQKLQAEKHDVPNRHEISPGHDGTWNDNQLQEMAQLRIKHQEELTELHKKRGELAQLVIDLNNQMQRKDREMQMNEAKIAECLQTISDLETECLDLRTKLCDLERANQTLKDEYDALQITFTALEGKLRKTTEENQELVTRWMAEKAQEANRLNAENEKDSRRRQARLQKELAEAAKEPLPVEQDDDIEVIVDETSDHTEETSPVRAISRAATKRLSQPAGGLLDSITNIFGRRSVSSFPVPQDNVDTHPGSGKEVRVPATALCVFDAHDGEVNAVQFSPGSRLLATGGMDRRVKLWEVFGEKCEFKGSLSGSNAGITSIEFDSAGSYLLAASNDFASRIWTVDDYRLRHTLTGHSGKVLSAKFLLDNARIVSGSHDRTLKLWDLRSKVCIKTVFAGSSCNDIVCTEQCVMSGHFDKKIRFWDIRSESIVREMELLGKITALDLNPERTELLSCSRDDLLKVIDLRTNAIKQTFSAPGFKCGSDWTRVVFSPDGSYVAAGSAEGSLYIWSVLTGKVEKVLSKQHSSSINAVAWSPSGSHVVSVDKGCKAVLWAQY
UniProt Q8C0J2: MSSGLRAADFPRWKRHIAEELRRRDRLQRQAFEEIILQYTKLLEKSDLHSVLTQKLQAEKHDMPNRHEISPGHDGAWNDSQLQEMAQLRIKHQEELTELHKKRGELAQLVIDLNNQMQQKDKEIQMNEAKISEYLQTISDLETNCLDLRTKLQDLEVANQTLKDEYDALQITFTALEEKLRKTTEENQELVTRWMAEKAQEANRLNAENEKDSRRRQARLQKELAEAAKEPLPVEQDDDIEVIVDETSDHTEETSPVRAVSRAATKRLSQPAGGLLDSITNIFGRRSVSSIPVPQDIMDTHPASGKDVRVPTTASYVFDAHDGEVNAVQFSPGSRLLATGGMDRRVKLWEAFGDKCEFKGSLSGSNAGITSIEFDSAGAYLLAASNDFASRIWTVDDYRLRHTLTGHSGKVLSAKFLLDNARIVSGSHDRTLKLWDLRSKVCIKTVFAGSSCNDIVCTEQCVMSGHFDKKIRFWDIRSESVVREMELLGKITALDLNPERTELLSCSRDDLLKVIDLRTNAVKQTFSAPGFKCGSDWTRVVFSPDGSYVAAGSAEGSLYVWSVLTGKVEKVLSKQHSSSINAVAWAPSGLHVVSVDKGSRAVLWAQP

No constants are given. Whether binding was seen depends on the method and setting. In cells and extracts the contact can be indirect. Some binding calls cover weakened binding; strength is not graded here. For some assays here: Where a sequence is shown, tags or fusion partners need not be part of it.

Experiment [1] concerns the target T1, Flag-tagged Gigaxonin (human, full-length) (human) (UniProt Q9H2C0).
T1 sequence: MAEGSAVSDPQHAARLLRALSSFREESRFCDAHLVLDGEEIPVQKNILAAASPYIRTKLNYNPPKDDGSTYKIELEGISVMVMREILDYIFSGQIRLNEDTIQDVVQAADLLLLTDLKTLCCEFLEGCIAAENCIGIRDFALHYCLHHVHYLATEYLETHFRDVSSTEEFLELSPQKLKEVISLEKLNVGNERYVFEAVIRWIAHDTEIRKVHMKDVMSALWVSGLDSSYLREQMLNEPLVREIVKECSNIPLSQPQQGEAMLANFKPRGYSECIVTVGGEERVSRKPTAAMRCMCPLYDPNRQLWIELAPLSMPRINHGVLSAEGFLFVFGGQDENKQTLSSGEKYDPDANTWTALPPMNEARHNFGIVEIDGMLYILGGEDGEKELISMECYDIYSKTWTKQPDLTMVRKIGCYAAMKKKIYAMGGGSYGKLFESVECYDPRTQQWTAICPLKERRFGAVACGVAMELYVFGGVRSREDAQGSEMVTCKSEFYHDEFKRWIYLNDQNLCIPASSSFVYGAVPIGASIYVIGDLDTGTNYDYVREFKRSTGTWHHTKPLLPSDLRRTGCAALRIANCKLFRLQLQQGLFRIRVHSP
As to the kind of experiment: proximity ligation; Duolink in situ PLA on fixed transfected COS-7 cells; anti-mouse minus and anti-rabbit plus probes; details and controls in Supplementary Fig. 1a, b.

For experiment [2], the target named is T1, Flag-tagged Gigaxonin (human, full-length) (human). Kind of experiment: co-IP; COS-7 cells transiently transfected and treated with MG132; anti-Flag or anti-Cherry antibodies on Dynabeads Protein G incubated with 500 µg of lysate protein for 2 h at room temperature in PBS tween 0.02%; immunoblot with Cherry/Flag antibodies; normal mouse IgG as negative control.

Experiment [3] addresses Cherry-ATG16L1 (human) (human) (UniProt Q676U5). The description is as above.
The target of experiment [4] is Flag-ATG16L1 full-length (mouse) (mouse) (UniProt Q8C0J2). Described as above.
The target of experiment [5] is ATG16L1 fused to the N-terminal region of YFP (BiFC construct) (human) (UniProt Q676U5). As to the kind of experiment: split reporter; BiFC in live transfected COS-7 cells ± MG132; ATG16L1 fused to YFPN (1-154aa) and Gigaxonin fused to YFPC (155-239aa).

Turning to “Cherry-ATG16L1 (human) (from UniProt Q676U5 1-607)”, the binding result in experiment [1] and in experiment [2] was “binds” each time.

B1: Flag-tagged Gigaxonin (human, full-length) (protein, UniProt Q9H2C0 1-597)
chain: MAEGSAVSDPQHAARLLRALSSFREESRFCDAHLVLDGEEIPVQKNILAAASPYIRTKLNYNPPKDDGSTYKIELEGISVMVMREILDYIFSGQIRLNEDTIQDVVQAADLLLLTDLKTLCCEFLEGCIAAENCIGIRDFALHYCLHHVHYLATEYLETHFRDVSSTEEFLELSPQKLKEVISLEKLNVGNERYVFEAVIRWIAHDTEIRKVHMKDVMSALWVSGLDSSYLREQMLNEPLVREIVKECSNIPLSQPQQGEAMLANFKPRGYSECIVTVGGEERVSRKPTAAMRCMCPLYDPNRQLWIELAPLSMPRINHGVLSAEGFLFVFGGQDENKQTLSSGEKYDPDANTWTALPPMNEARHNFGIVEIDGMLYILGGEDGEKELISMECYDIYSKTWTKQPDLTMVRKIGCYAAMKKKIYAMGGGSYGKLFESVECYDPRTQQWTAICPLKERRFGAVACGVAMELYVFGGVRSREDAQGSEMVTCKSEFYHDEFKRWIYLNDQNLCIPASSSFVYGAVPIGASIYVIGDLDTGTNYDYVREFKRSTGTWHHTKPLLPSDLRRTGCAALRIANCKLFRLQLQQGLFRIRVHSP
On to B1, for which, in experiment [3], the binding entry is “binds”.

B2: Cherry-Gigaxonin (human, full-length) (protein, UniProt Q9H2C0 1-597)
chain: MAEGSAVSDPQHAARLLRALSSFREESRFCDAHLVLDGEEIPVQKNILAAASPYIRTKLNYNPPKDDGSTYKIELEGISVMVMREILDYIFSGQIRLNEDTIQDVVQAADLLLLTDLKTLCCEFLEGCIAAENCIGIRDFALHYCLHHVHYLATEYLETHFRDVSSTEEFLELSPQKLKEVISLEKLNVGNERYVFEAVIRWIAHDTEIRKVHMKDVMSALWVSGLDSSYLREQMLNEPLVREIVKECSNIPLSQPQQGEAMLANFKPRGYSECIVTVGGEERVSRKPTAAMRCMCPLYDPNRQLWIELAPLSMPRINHGVLSAEGFLFVFGGQDENKQTLSSGEKYDPDANTWTALPPMNEARHNFGIVEIDGMLYILGGEDGEKELISMECYDIYSKTWTKQPDLTMVRKIGCYAAMKKKIYAMGGGSYGKLFESVECYDPRTQQWTAICPLKERRFGAVACGVAMELYVFGGVRSREDAQGSEMVTCKSEFYHDEFKRWIYLNDQNLCIPASSSFVYGAVPIGASIYVIGDLDTGTNYDYVREFKRSTGTWHHTKPLLPSDLRRTGCAALRIANCKLFRLQLQQGLFRIRVHSP
As to B2, the binding entry in experiment [4] is “binds”.

B3: Gigaxonin fused to the C-terminal region of YFP (BiFC construct) (protein, UniProt Q9H2C0 1-597)
chain: MAEGSAVSDPQHAARLLRALSSFREESRFCDAHLVLDGEEIPVQKNILAAASPYIRTKLNYNPPKDDGSTYKIELEGISVMVMREILDYIFSGQIRLNEDTIQDVVQAADLLLLTDLKTLCCEFLEGCIAAENCIGIRDFALHYCLHHVHYLATEYLETHFRDVSSTEEFLELSPQKLKEVISLEKLNVGNERYVFEAVIRWIAHDTEIRKVHMKDVMSALWVSGLDSSYLREQMLNEPLVREIVKECSNIPLSQPQQGEAMLANFKPRGYSECIVTVGGEERVSRKPTAAMRCMCPLYDPNRQLWIELAPLSMPRINHGVLSAEGFLFVFGGQDENKQTLSSGEKYDPDANTWTALPPMNEARHNFGIVEIDGMLYILGGEDGEKELISMECYDIYSKTWTKQPDLTMVRKIGCYAAMKKKIYAMGGGSYGKLFESVECYDPRTQQWTAICPLKERRFGAVACGVAMELYVFGGVRSREDAQGSEMVTCKSEFYHDEFKRWIYLNDQNLCIPASSSFVYGAVPIGASIYVIGDLDTGTNYDYVREFKRSTGTWHHTKPLLPSDLRRTGCAALRIANCKLFRLQLQQGLFRIRVHSP
As to B3, the binding result in experiment [5] was “binds”.
